Data taken from the supplement of paper PMC12067093, “Discovery and optimisation of a covalent ligand for TRIM25 and its application to targeted protein ubiquitination” (Chemical Science, 2025).
Some of the results follow.

Chains of the proteins cited; added tags and fusions are not shown. Lines headed by an entry give the natural chain unless they say otherwise; changes in a name come on top.
UniProt Q5T5C0: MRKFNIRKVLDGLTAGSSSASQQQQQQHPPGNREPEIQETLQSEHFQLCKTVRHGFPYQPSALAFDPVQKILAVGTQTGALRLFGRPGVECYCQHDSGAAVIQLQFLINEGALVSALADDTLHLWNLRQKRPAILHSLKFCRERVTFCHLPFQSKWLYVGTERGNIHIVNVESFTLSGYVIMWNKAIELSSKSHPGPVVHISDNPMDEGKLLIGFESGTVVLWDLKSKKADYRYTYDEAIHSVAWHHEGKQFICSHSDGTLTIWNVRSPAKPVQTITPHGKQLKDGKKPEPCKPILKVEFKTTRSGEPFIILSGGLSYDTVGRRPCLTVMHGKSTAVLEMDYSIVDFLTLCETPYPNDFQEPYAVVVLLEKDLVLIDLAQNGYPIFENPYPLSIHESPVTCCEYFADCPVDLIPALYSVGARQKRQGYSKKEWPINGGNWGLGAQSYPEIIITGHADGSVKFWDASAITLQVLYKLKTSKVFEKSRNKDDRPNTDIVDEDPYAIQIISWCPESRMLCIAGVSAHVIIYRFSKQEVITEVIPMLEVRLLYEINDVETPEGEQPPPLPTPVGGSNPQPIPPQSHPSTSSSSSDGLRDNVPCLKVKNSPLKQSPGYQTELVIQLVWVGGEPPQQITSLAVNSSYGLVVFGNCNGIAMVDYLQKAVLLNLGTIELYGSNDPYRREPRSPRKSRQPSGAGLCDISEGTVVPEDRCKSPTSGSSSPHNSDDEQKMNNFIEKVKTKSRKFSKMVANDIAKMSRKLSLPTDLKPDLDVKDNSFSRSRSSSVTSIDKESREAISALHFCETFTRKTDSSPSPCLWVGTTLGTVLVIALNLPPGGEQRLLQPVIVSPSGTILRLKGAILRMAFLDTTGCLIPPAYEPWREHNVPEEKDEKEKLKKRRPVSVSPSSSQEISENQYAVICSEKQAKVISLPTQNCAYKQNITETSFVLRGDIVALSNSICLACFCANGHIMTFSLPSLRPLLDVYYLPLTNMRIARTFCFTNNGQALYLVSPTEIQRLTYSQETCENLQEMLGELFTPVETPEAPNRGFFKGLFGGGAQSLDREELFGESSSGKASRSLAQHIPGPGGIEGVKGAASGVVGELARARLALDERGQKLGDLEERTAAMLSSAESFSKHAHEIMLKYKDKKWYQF
UniProt P52630: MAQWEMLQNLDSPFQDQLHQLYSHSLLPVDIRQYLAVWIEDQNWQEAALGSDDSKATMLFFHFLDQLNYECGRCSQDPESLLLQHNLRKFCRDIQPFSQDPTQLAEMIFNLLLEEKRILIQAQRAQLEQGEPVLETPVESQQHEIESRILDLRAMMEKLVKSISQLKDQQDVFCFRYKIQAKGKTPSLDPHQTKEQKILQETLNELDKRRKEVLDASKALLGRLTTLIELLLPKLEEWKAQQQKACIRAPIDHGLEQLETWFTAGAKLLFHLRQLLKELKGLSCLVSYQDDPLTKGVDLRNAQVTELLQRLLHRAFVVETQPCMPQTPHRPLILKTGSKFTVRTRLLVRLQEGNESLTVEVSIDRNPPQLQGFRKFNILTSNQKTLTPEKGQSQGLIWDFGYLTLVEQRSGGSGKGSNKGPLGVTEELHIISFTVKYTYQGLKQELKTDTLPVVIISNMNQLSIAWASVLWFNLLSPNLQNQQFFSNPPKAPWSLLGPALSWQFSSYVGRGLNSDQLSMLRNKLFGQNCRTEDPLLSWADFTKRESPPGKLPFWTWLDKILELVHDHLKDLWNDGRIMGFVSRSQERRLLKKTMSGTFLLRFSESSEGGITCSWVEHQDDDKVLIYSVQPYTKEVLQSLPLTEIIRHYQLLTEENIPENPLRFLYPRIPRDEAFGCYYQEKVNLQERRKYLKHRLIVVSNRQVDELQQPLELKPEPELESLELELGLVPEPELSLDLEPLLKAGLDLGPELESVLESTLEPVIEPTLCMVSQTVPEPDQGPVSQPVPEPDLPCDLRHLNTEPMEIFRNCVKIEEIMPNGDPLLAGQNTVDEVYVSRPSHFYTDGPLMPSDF
UniProt P84103: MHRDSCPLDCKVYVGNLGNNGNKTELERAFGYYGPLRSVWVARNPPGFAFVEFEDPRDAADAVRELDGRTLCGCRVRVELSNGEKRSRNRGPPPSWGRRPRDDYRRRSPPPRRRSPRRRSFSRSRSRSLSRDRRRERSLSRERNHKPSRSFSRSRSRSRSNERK
UniProt P31948, whole entry, looked up: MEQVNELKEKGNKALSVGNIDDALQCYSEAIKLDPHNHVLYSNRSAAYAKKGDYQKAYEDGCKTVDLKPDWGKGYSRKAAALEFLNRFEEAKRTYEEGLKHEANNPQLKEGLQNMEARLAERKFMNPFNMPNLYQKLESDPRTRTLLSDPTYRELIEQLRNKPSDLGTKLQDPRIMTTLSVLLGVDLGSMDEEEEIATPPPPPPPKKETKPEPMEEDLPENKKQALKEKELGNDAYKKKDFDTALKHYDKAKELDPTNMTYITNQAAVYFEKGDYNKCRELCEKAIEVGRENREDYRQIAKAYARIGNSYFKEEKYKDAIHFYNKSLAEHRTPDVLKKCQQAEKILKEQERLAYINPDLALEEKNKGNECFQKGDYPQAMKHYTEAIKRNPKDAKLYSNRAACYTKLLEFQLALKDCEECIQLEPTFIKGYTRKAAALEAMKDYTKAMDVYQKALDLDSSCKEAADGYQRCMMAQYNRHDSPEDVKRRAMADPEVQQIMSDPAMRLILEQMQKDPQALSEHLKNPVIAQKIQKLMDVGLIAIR
UniProt Q15833: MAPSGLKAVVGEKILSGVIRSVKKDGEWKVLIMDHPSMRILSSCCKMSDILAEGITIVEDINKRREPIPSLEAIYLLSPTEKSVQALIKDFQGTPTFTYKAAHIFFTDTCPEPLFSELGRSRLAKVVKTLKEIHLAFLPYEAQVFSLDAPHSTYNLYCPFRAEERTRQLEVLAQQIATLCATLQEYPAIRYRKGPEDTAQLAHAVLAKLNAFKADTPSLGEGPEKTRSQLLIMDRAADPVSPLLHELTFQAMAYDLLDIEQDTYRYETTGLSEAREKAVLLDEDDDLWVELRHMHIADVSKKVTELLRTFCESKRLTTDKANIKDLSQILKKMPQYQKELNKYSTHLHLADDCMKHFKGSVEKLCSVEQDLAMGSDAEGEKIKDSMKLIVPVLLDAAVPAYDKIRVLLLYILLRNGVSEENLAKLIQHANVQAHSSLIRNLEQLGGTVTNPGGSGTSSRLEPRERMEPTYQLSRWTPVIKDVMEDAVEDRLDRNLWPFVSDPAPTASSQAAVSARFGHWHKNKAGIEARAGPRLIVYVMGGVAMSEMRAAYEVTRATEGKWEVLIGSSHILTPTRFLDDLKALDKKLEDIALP
UniProt Q8IX01: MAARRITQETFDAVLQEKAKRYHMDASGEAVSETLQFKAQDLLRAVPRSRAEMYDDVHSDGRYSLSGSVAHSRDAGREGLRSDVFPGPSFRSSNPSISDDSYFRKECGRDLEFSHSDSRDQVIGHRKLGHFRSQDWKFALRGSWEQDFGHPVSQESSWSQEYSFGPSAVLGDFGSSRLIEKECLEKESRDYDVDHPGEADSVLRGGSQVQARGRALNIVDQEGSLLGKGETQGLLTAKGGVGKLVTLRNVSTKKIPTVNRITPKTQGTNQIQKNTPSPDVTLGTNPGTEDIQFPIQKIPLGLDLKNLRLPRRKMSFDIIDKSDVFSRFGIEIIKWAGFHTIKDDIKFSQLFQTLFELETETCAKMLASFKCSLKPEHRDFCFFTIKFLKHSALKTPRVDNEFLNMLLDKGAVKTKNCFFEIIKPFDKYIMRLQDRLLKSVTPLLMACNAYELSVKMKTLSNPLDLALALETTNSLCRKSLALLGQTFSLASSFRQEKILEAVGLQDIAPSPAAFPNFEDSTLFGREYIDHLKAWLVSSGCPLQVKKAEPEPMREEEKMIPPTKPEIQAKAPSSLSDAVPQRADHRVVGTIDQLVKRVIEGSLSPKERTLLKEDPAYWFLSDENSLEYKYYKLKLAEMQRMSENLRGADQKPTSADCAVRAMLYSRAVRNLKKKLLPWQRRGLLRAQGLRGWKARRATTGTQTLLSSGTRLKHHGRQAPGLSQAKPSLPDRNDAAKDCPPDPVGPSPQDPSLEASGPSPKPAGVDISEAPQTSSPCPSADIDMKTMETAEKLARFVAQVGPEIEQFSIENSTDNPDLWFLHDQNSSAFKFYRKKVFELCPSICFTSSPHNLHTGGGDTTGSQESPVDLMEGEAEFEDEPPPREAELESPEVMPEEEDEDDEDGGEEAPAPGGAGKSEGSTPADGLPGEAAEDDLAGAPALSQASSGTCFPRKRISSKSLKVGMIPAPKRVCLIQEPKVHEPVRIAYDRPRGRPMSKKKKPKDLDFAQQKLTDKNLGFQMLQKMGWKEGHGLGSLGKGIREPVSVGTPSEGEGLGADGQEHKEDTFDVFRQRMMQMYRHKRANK
UniProt Q15022: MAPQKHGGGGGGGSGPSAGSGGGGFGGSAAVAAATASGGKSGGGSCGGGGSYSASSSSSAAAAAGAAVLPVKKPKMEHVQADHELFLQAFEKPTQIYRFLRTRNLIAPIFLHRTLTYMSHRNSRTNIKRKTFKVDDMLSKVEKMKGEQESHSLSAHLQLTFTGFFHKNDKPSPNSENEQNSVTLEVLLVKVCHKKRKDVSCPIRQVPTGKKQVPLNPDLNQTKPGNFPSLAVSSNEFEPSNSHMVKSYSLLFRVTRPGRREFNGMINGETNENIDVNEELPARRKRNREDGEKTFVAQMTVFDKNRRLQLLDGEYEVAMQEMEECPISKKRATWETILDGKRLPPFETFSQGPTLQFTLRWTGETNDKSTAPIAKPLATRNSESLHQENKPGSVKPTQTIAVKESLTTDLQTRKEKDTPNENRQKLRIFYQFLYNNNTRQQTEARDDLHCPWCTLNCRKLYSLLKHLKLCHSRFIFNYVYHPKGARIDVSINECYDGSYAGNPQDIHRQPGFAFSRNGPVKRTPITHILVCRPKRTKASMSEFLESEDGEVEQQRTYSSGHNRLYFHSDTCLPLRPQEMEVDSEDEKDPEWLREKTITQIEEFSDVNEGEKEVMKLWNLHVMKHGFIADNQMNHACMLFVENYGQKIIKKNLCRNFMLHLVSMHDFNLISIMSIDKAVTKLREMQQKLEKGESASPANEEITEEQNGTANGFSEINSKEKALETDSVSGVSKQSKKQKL
UniProt Q9UJZ1: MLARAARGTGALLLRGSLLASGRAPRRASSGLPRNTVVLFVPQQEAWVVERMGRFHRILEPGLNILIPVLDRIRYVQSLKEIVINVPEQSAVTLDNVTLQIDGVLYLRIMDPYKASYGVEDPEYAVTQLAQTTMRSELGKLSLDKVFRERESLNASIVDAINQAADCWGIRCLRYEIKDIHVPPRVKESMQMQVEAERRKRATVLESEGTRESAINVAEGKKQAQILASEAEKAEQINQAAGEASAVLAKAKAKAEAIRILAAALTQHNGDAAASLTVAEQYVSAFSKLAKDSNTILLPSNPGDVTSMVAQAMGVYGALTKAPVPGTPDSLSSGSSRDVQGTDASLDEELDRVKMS
UniProt P42224: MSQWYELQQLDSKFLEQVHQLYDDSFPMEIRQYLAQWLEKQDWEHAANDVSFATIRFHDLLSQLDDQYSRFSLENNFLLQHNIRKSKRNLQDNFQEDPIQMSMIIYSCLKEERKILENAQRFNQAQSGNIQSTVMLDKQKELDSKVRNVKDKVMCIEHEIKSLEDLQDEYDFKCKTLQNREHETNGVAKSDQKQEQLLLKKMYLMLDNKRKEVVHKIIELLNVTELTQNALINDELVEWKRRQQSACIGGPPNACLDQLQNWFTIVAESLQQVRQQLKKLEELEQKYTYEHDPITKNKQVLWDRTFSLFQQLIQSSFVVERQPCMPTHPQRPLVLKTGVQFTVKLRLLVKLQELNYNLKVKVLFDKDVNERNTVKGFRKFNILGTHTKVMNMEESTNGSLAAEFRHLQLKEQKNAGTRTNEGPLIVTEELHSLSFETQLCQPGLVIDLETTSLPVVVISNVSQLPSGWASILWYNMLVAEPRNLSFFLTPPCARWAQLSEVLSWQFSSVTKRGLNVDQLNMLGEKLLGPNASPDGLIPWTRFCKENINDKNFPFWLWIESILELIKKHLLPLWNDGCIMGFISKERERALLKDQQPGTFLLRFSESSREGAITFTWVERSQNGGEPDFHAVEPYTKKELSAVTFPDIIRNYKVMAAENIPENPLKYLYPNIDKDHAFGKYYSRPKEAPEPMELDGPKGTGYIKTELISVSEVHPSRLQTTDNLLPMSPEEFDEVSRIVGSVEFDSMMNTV
UniProt O75683: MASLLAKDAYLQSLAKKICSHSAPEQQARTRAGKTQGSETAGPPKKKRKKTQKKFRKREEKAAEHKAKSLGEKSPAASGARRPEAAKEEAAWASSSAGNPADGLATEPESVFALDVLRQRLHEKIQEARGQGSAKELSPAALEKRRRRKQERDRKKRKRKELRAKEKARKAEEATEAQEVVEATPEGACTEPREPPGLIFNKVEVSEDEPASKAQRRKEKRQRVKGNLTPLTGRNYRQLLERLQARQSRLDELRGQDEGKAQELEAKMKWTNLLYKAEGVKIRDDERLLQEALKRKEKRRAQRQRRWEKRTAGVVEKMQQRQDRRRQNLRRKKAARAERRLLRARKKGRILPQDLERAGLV

Compound: Cc1cc(ccc1-c1ccccc1)C(=O)N1CCCN(CC1)C(=O)CCl [compound 10]
Test: probe-labelled cysteine peptide fold change vs DMSO (competition) (log2 fold change); higher = less target engagement (more negative = stronger competition)
Settings: THP-1, incubation time: 4 h
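Note: competitive profiling in live THP-1 cells: cysteine peptides tagged with an iodoacetamide desthiobiotin (IA-DTB) probe, intensity after compound treatment relative to DMSO-treated cells.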

Target: STARD3_Q14849_291_TFLPCPAELVYQEVILQPER (UniProt Q14849)
- probe-labelled cysteine peptide fold change (10 µM): 0.678
- probe-labelled cysteine peptide fold change (50 µM): 0.907

Target: STXBP5_Q5T5C0_933_VISLPTQNCAYK (UniProt Q5T5C0)
- probe-labelled cysteine peptide fold change (10 µM): 0.186
- probe-labelled cysteine peptide fold change (50 µM): 0.107

Target: SRRT_Q9BXP5_628_IVHSLDYYNTCEYPNEDEMPNR (UniProt Q9BXP5)
- probe-labelled cysteine peptide fold change (10 µM): 0.181
- probe-labelled cysteine peptide fold change (50 µM): 0.111

Target: STAT2_P52630_529_LFGQNCR (UniProt P52630)
- probe-labelled cysteine peptide fold change (10 µM): -0.178
- probe-labelled cysteine peptide fold change (50 µM): 0.0371

Target: STRAP_Q9Y3F4_270_GHFGPIHCVR (UniProt Q9Y3F4)
- probe-labelled cysteine peptide fold change (10 µM): 0.194
- probe-labelled cysteine peptide fold change (50 µM): 0.0693

Target: STIM2_Q9P246_426_ALSELTTCLR (UniProt Q9P246)
- probe-labelled cysteine peptide fold change (10 µM): -0.00769
- probe-labelled cysteine peptide fold change (50 µM): -0.562

Target: SRSF3_P84103_6_DSCPLDCK (UniProt P84103)
- probe-labelled cysteine peptide fold change (10 µM): -0.0133
- probe-labelled cysteine peptide fold change (50 µM): -0.594

Target: STAG2_Q8N3U4_176_SSFCEFIGVLVR (UniProt Q8N3U4)
- probe-labelled cysteine peptide fold change (10 µM): 0.175
- probe-labelled cysteine peptide fold change (50 µM): 0.43

Target: STXBP1_P61764_110_AAHVFFTDSCPDALFNELVK (UniProt P61764)
- probe-labelled cysteine peptide fold change (10 µM): 0.24
- probe-labelled cysteine peptide fold change (50 µM): 0.527

Target: STIP1_P31948_26_ALSVGNIDDALQCYSEAIK (UniProt P31948)
- probe-labelled cysteine peptide fold change (10 µM): 0.326
- probe-labelled cysteine peptide fold change (50 µM): -0.0316

Target: SUPT6H_Q7KZ85_1169_LIICNVTGIAHR (UniProt Q7KZ85)
- probe-labelled cysteine peptide fold change (10 µM): 0.207
- probe-labelled cysteine peptide fold change (50 µM): 0.256

Target: STXBP2_Q15833_365_LCSVEQDLAMGSDAEGEK (UniProt Q15833)
- probe-labelled cysteine peptide fold change (10 µM): -0.172
- probe-labelled cysteine peptide fold change (50 µM): -0.0811

Target: SUGP2_Q8IX01_656_GADQKPTSADCAVR (UniProt Q8IX01)
- probe-labelled cysteine peptide fold change (10 µM): -0.106
- probe-labelled cysteine peptide fold change (50 µM): -0.168

Target: SUZ12_Q15022_531_RTPITHILVCR (UniProt Q15022)
- probe-labelled cysteine peptide fold change (10 µM): -0.113
- probe-labelled cysteine peptide fold change (50 µM): -0.00139

Target: SURF2_Q15527_127_QGVEYVPACLVHR (UniProt Q15527)
- probe-labelled cysteine peptide fold change (10 µM): -0.0766
- probe-labelled cysteine peptide fold change (50 µM): -0.161

Target: STOML2_Q9UJZ1_167_ERESLNASIVDAINQAADCWGIR (UniProt Q9UJZ1)
- probe-labelled cysteine peptide fold change (10 µM): -0.0119
- probe-labelled cysteine peptide fold change (50 µM): -0.271

Target: STK39_Q9UEW8_450_EASSCAVNLVLR (UniProt Q9UEW8)
- probe-labelled cysteine peptide fold change (10 µM): -0.028
- probe-labelled cysteine peptide fold change (50 µM): 0.0278

Target: STIP1_P31948_461_ALDLDSSCK (UniProt P31948)
- probe-labelled cysteine peptide fold change (10 µM): 0.279
- probe-labelled cysteine peptide fold change (50 µM): -0.0725

Target: SUZ12_Q15022_201_DVSCPIR (UniProt Q15022)
- probe-labelled cysteine peptide fold change (10 µM): -0.099
- probe-labelled cysteine peptide fold change (50 µM): -0.27

Target: STT3A_P46977_637_VDREGSPVLLNCLMYK (UniProt P46977)
- probe-labelled cysteine peptide fold change (10 µM): 0.0583
- probe-labelled cysteine peptide fold change (50 µM): -0.00172

Target: STXBP2_Q15833_353_YSTHLHLADDCMK (UniProt Q15833)
- probe-labelled cysteine peptide fold change (10 µM): -0.122
- probe-labelled cysteine peptide fold change (50 µM): -0.28

Target: STYX_Q8WUJ0_62_HGITHIICIR (UniProt Q8WUJ0)
- probe-labelled cysteine peptide fold change (10 µM): 0.0681
- probe-labelled cysteine peptide fold change (50 µM): 0.156

Target: SYK_P43405_259_VLTVPCQK (UniProt P43405)
- probe-labelled cysteine peptide fold change (10 µM): 0.0686
- probe-labelled cysteine peptide fold change (50 µM): 0.113

Target: STIP1_P31948_417_DCEECIQLEPTFIK (UniProt P31948)
- probe-labelled cysteine peptide fold change (10 µM): 0.327
- probe-labelled cysteine peptide fold change (50 µM): -0.028

Target: STXBP3_O00186_354_QVVHLNLAEDCMNK (UniProt O00186)
- probe-labelled cysteine peptide fold change (10 µM): -0.206
- probe-labelled cysteine peptide fold change (50 µM): -0.141

Target: SUPT5H_O00267_1012_SVTGGMCSVYLK (UniProt O00267)
- probe-labelled cysteine peptide fold change (10 µM): 0.159
- probe-labelled cysteine peptide fold change (50 µM): 0.0393

Target: STAT1_P42224_155_VMCIEHEIK (UniProt P42224)
- probe-labelled cysteine peptide fold change (10 µM): 0.0705
- probe-labelled cysteine peptide fold change (50 µM): -0.344

Target: STXBP5_Q5T5C0_800_EAISALHFCETFTR (UniProt Q5T5C0)
- probe-labelled cysteine peptide fold change (10 µM): -0.0114
- probe-labelled cysteine peptide fold change (50 µM): -0.0806

Target: SURF6_O75683_189_KAEEATEAQEVVEATPEGACTEPR (UniProt O75683)
- probe-labelled cysteine peptide fold change (10 µM): -0.0912
- probe-labelled cysteine peptide fold change (50 µM): -0.433

Target: SUPT6H_Q7KZ85_960_EELLNALYCEFINR (UniProt Q7KZ85)
- probe-labelled cysteine peptide fold change (10 µM): 0.268
- probe-labelled cysteine peptide fold change (50 µM): 0.39

Target: SRSF3_P84103_10_DSCPLDCK (UniProt P84103)
- probe-labelled cysteine peptide fold change (10 µM): -0.0282
- probe-labelled cysteine peptide fold change (50 µM): -0.63

Target: SUGP2_Q8IX01_417_NCFFEIIKPFDK (UniProt Q8IX01)
- probe-labelled cysteine peptide fold change (10 µM): -0.328
- probe-labelled cysteine peptide fold change (50 µM): -1.49

Target: SUPT16H_Q9Y5B9_323_ICDVYNAVMDVVKK (UniProt Q9Y5B9)
- probe-labelled cysteine peptide fold change (10 µM): -0.00366
- probe-labelled cysteine peptide fold change (50 µM): 0.131

Target: STAT3_P40763_687_YCRPESQEHPEADPGSAAPYLK (UniProt P40763)
- probe-labelled cysteine peptide fold change (10 µM): -0.139
- probe-labelled cysteine peptide fold change (50 µM): 0.0845

Target: STAT1_P42224_108_NLQDNFQEDPIQMSMIIYSCLK (UniProt P42224)
- probe-labelled cysteine peptide fold change (10 µM): 0.0579
- probe-labelled cysteine peptide fold change (50 µM): 0.00709
